According to the supplement of paper PMC7858590:
“And” between values parts separate entries of the source, which are not always exact repeats. Equal entries are not always repeated. ± gives the standard deviation of the averaged measurements. Over roughly 3,800 compounds, “cell shape (eccentricity) Z-score vs DMSO control” has its median near 1.1; the lowest 2% begin near -4.7. Some of the results follow.

These compounds were tested on human monocyte-derived macrophages (M0) (assay: cell shape (eccentricity) Z-score vs DMSO control; higher = more elongated, M2-like morphology). Conditions: 20 µM; 24 h; macrophage state: M0 (M-CSF).

Structure (SMILES)	cell shape (Z-score)
C[C@]12CC[C@H](O)CC1=CC[C@@H]1[C@@H]2CC[C@]2(C)C(c3cccnc3)=CC[C@@H]12	-0.579 ± 1.3
CCCNC(C)C(=O)Nc1ccccc1C (stereo unspecified)	1.99
Oc1ccc(CCCc2ccc3c(c2)OCO3)c(O)c1	3.7
O=C1C[C@@H](c2ccc(O)c(O)c2)Oc2cc(O[C@@H]3O[C@H](CO)[C@@H](O)[C@H](O)[C@H]3O)cc(O)c21	0.661 ± 1.8
C/C(=C\CC[C@@H](C)[C@H]1CC(O)[C@@]2(C)C3CC[C@H]4C(C)(C)[C@@H](O[C@@H]5OC(CO)C(O)C(O)C5OC5OC(CO)C(O)C(O)C5O)CC[C@@]45C[C@@]35CC(O)[C@]12C)C(=O)O (stereo partly specified)	-1.27
CN[C@H]1CC[C@@H](c2ccc(Cl)c(Cl)c2)c2ccccc21	-5.32
CC1(C)C(=O)C=C[C@@]2(C)C1C=C[C@]1(C)C2CC[C@@]2(C)[C@H](c3ccoc3)OC(=O)[C@H]3O[C@]321 (stereo partly specified)	7.92
C=CCc1ccc(O)c(OC)c1	1.31
Cc1ccc(C(=CCN2CCCC2)c2ccccn2)cc1	0.883
O=C(O)c1cc(=O)c2ccccc2o1	-0.732
CC(=O)OC/C(=C\COc1cc(=O)oc2cccc(C)c12)CCC=C(C)C	1.97
CC1C(=O)C23CC(O)C4C(C)(C(=O)OC5OC(CO)C(O)C(O)C5O)CCCC4(C)C2(O)CCC1C3 (stereo unspecified)	-1.63
C=Cc1cncc2c(=O)n3c(cc12)-c1[nH]c2ccccc2c1CC3	2.24
C=CC[C@@H]1/C=C(\C)C[C@H](C)C[C@H](OC)[C@H]2O[C@@](O)(C(=O)C(=O)N3CCCC[C@H]3C(=O)O[C@H](/C(C)=C/[C@@H]3CC[C@@H](O)[C@H](OC)C3)[C@H](C)[C@@H](O)CC1=O)[C@H](C)C[C@@H]2OC	1.85 and 3.1
COC(CCc1ccc(O)c(O)c1)CC(=O)CCc1ccc(O)c(O)c1 (stereo unspecified)	1.18
O=c1c2c(c1=O)N(CCP(=O)(O)O)CCCN2	1.87
C[C@H](CCC(=O)NCC(=O)O)[C@H]1CCC2C3C(C[C@H](O)[C@@]21C)[C@@]1(C)CC[C@@H](O)CC1C[C@H]3O (stereo partly specified)	1.5
CC(C)(O)C(O)COc1c2ccoc2cc2oc(=O)ccc12 (stereo unspecified)	-1.19
CN(Cc1ccccc1)C(=O)C(Cc1ccc2ccccc2c1)NC(=O)C1CCCN1C(=O)Nc1ccccc1[N+](=O)[O-] (stereo unspecified)	2.76
CC(C)(Oc1ccc(CCNC(=O)c2ccc(Cl)cc2)cc1)C(=O)O	1.54
CCOC(=O)CCNc1cc(N2CCc3ccccc3CC2)nc(-c2ccccn2)n1	3.61

Structure (SMILES)	cell shape (Z-score)
O=C(/C=C/CCc1ccc2c(c1)OCO2)N1CCCCC1	-1.14
O=c1[nH]c2cc(Cl)c(Cl)c([N+](=O)[O-])c2[nH]c1=O	0.958
O=C(c1ccc(Nc2nccc(-c3cc4ccccc4s3)n2)cc1)N1CCC(N2CCCC2)CC1	-4.98
CC(C)(C)NC[C@H](O)COc1nsnc1N1CCOCC1	0.397
CC(=O)N[C@H]1C[C@@H](C(=O)Nc2cc(-c3ccc(F)cc3)ccc2N)C1	3.46
CC[C@H](NC(=O)c1c(C)c(-c2ccccc2)nc2ccccc12)c1ccccc1	3.9
COc1ccc2cc1Oc1ccc(cc1)C[C@H]1c3c(cc4c(c3Oc3cc5c(cc3OC)CCN(C)[C@@H]5C2)OCO4)CCN1C	-2.3
COc1ccccc1-c1cc(=O)c2ccccc2o1	1.19
C=CCOC(Cn1ccnc1)c1ccc(Cl)cc1Cl (stereo unspecified)	3.77
O=C(CCCc1ccc(-c2ccccc2F)cc1)Nc1ccc(O)cc1	-4.74
Cc1cc(N2CCOCC2)cc2[nH]c(-c3c(NC[C@@H](O)c4cccc(Cl)c4)cc[nH]c3=O)nc12	10.2
C[C@H]1CN([C@@H](C)CO)S(=O)(=O)c2ccc(C#Cc3ccncc3)cc2O[C@@H]1CN(C)C(=O)Nc1ccc2c(c1)OCO2	-10.9
Cc1c(C(=O)NC2CCCCC2)sc2nc3ccc(N)cc3n12	1.17
CCN(CC)c1ccc(C=NNC(=O)c2ccc(O)cc2)cc1	-2.38
C[C@H]1[C@H]2OC3=C(C(=O)OC3(C)O)C(=O)[C@]1(C)[C@H]1CCCC[C@]1(O)[C@H]2O (stereo partly specified)	1.39
COC(=O)c1cccc2oc3cc(CO)cc(O)c3c(=O)c12	-0.637 ± 0.72
FC(F)(F)c1ccccc1-n1ccnc1	2.11
CC1OC(=O)CC2C(C(=O)O)=CC3CC(C)(C)CC312 (stereo unspecified)	-3.09 ± 0.58
CNC[C@@H]1Oc2ccc(NS(C)(=O)=O)cc2CC(=O)N([C@H](C)CO)C[C@@H]1C	2.39
O=c1[nH]c2cc(Cl)ccc2c(O)c1-c1cccc(Oc2ccccc2)c1	-0.358
CC1CCc2cc(F)cc3c(=O)c(C(=O)O)cn1c23 (stereo unspecified)	1.58

As entered above:
`O=C1C[C@@H](c2ccc(O)c(O)c2)Oc2cc(O[C@@H]3O[C@H](CO)[C@@H](O)[C@H](O)[C@H]3O)cc(O)c21` – cell shape (Z-score): 0.661 ± 1.8
`O=C(c1ccc(Nc2nccc(-c3cc4ccccc4s3)n2)cc1)N1CCC(N2CCCC2)CC1` – cell shape (Z-score): -4.98

(list continues)

Structure (SMILES)	cell shape (Z-score)
Nc1cc2ncnc(Nc3cccc(Br)c3)c2cc1N	-3.01
O=C(OCC1OC(Oc2ccc(O)cc2COC(=O)C2(O)C(O)CCC(=O)C2O)C(O)C(O)C1O)c1ccccc1 (stereo unspecified)	-1.23
CC(C)(CO)Cc1cc(C(C)(C)C)c(O)c(C(C)(C)C)c1	3.65
Fc1ccc(-c2nc3n(c2-c2ccncc2)CCS3)cc1	3.5
C=C(C)C(=O)O[C@H]1CC(=C)C2C[C@H](O)[C@](O)(CO)C2[C@H]2OC(=O)C(=C)[C@H]12 (stereo partly specified)	-0.704
CCCCC1=NC2(CCCC2)C(=O)N1Cc1ccc(-c2ccccc2-c2nnn[nH]2)cc1	0.959
Cn1c(=O)n(-c2ccc(C(C)(C)C#N)cc2)c2c3cc(-c4cnc5ccccc5c4)ccc3ncc21	-0.629
CC(NCC(O)CP(=O)(O)CC1CCCCC1)c1ccc(Cl)c(Cl)c1 (stereo unspecified)	0.932
CC(C)=CCC/C(C)=C/COc1ccc2ccc(=O)oc2c1	-1.73
CCC(C)C(=O)c1c(O)cc2c(c1O)CC(CC=C(C)C)C(C)(C)O2 (stereo unspecified)	-3.7
O=c1ccc2ccc(O)c(O)c2o1	-1.68
Cc1ccc(C(C)C)cc2c(C)ccc1-2	1.03
COC1=C(OC)C(=O)C(CCCCCCCCCCO)=C(C)C1=O	0.991
C=C(CC)C(=O)c1ccc(OCC(=O)O)c(Cl)c1Cl	3.27
C=C1C(=O)OC2CC3(C)CCC=C(CO)C3CC12 (stereo unspecified)	-3.71
CCS(=O)(=O)N1CCC[C@@H]2CN3CCc4cc(OC)ccc4[C@@H]3C[C@@H]21	1.75
C=C(C(=O)O)C(CCCCCC)C(=O)O (stereo unspecified)	3.8
COc1ccc(N(C(=O)c2ccccc2)S(=O)(=O)c2cc(OC)ccc2OC)cc1	5.66
CC(=O)O[C@H]1C(=O)[C@@]2(C)C([C@H](OC(=O)c3ccccc3)[C@]3(O)C[C@H](OC(=O)[C@H](O)[C@@H](NC(=O)c4ccccc4)c4ccccc4)C(C)=C1C3(C)C)[C@]1(OC(C)=O)CO[C@@H]1C[C@@H]2O (stereo partly specified)	-4.41 and -4.29 and -4.69

3 entries from above, sorted by molar mass, rising.
Structure (SMILES)	cell shape (Z-score)
C=C1C(=O)OC2CC3(C)CCC=C(CO)C3CC12 (stereo unspecified)	-3.71
CN[C@H]1CC[C@@H](c2ccc(Cl)c(Cl)c2)c2ccccc21	-5.32
CCCCC1=NC2(CCCC2)C(=O)N1Cc1ccc(-c2ccccc2-c2nnn[nH]2)cc1	0.959
